The text below walks through data of PubChem BioAssay AID1671190 (National Center for Advancing Translational Sciences (NCATS), 2021).

The chains behind the UniProt entries cited, without tags or fusion partners. Where a name states a change or a piece, a line headed by the entry shows the natural chain unless it says otherwise.
UniProt P18054: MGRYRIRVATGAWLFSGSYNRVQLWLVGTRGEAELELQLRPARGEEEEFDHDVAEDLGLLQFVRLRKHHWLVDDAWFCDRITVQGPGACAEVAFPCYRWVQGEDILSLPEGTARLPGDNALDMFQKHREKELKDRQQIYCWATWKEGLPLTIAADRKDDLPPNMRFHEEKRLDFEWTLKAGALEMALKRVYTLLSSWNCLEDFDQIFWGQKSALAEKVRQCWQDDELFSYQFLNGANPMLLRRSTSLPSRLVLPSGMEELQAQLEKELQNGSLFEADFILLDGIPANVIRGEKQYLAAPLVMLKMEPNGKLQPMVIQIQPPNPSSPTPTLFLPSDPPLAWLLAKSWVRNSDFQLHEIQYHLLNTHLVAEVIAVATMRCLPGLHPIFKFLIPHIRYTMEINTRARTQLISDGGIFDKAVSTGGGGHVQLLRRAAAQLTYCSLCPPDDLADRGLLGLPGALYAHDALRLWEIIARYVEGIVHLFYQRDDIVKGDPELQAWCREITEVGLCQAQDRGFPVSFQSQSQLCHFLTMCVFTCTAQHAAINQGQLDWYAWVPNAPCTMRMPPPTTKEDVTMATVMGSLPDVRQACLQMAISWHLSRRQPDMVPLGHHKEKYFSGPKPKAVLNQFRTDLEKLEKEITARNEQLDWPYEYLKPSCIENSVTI

Hit rate of the full screen: of about 580,000 compounds, about 6,100 (1.1%) were called active. Not shown: some 15% with an inconclusive outcome. Calls come from the whole dose curve; as a rule, active = well fitted inhibition curve with a large enough effect; inconclusive = small, poorly fitted or top-dose-only effect, or another doubt; inactive = no such curve, though single readings can be large or run the other way. Only a part is listed here, and it is no random draw. Entries without a call were filed so in the source.
% is set by controls: 0 for no effect and ±100 for the full control effect; potency is the fitted concentration of half-maximal effect.

The target of this experiment is Polyunsaturated fatty acid lipoxygenase ALOX12 (Homo sapiens) (UniProt P18054). Description: Primary qHTS assay for inhibitors of human arachidonate 12S-lipoxygenase (ALOX12): Round 2. The note with it: purified 12hLO, xylenol orange hydroperoxide absorbance; activity change, negative = inhibition: at 0.00344 µM (top of the series) unless noted. From the text:
Assay Provider: Theodore R. Holman Ph.D. University of California, Santa Cruz, California Human lipoxygenase 12hLO is a member of the closely related lipoxygenase family of enzymes which catalyze the site-specific oxidation of arachidonic acid to various hormone precursor molecules and as such is a candidate for drug development in a variety of disease areas, such as cancer and inflammation. Inhibition of 12hLO activity was screened by utilizing arachidonic acid as a substrate. The extent of hydroperoxide product formation was measured by a secondary chromogenic reaction in which xylenol orange (XO, Sigma-Aldrich, cat. number 39,818-7) reacts with the ferric ions produced from the reaction between the hydroperoxide and ferrous ions. The Fe (III)-XO complex is characterized with red-shifted absorbance at 560 nm. A purified preparation of human 12hLO was supplied by Dr. Holman laboratory, University of California, Santa Cruz.
PROTOCOL TABLE SEQUENCE No. (e.g., 1, 2, 3, etc.); […] (e.g., Cells, Incubation, Reagent, etc.); VALUE; DESCRIPTION 1; Enzyme; 3 uL; 150 nM 12hLO enzyme solution dispensed in 1536-well Greiner black, clear bottom plates. 2; Compound; 23 nL; compounds and controls were added. 3; Incubate; 15 min; room temperature. 4; Substrate; 1 uL; 40 uM arachidonic acid (final concentration). 5; Incubate; 30 min; room temperature. 6; Reagent; 4 uL; Fe-XO solution was added to each well. 7; Incubation; 30 min; room temperature 8; Detector; absorbance; Read 1 at 405 nm absorbance using ViewLux (Perkin-Elmer) CCD imager. 9; Detector; absorbance; Read 2 at 573 nm absorbance using ViewLux (Perkin-Elmer) CCD imager. NOTES (numbers refer to sequence above) 1; 150 nM 12hLO (final concentration) in buffer solution (25 mM Hepes, 0.01% Triton X-100, pH 7.0) was dispensed in columns 1, 2, 5-48. Column 1 is neutral (100% activity). Buffer only was dispensed in columns 3 and 4 as no enzyme negative controls. The plates were covered with metal lids with gas-exchange holes. 2; Compounds were pin transferred via a Kalypsys Pin Tool (Wako USA) in column 5-48. Control compound was transferred in column 2, titration of nordihydroguaiaretic acid (NDGA, Sigma-Aldrich, N5023) with top concentration of 20 mM in DMSO then 1:3 dilution in duplicate. Dilution factor of 23 nL into 4 uL final assay volume. 3; Covered assay plates were incubated for 15 min at room temperature. 4; Substrate was added to start the reaction; 40 uM arachidonic acid (Sigma-Aldrich, St. Louis, MO) was dispensed throughout the plate. 6; Chromogenic detection reagent solution (divalent iron/xylenol orange, Fe-XO) was added to each well: 200 uM xylenol orange, 300 uM ferrous ammonium sulfate prepared freshly in 50 mM sulfuric acid. 8, 9; Two absorbance readouts were obtained at 405 nm and at 573 nm using a ViewLux high-throughput CCD plate imager (Perkin-Elmer). The 573 to 405 (Read 2 / Read 1) absorbance ratio was used to compute reaction progress.
Background: Quantitative high-throughput screening tests each substance at several concentrations.
As for `Cl/C(=C/c1ccc(Cl)cc1)c1ncc(-c2ccc(Cl)cc2)o1`, the Potency is active: 35.5 µM.
On to `FC(F)(F)C(F)(F)C(F)(F)C(F)(F)C(F)(F)C(F)(F)C(F)(F)C(F)(F)Br`, for which the activity change, negative = inhibition was -24.8%.
As to `CN(C)CCC[C@@]1(c2ccc(F)cc2)OCc2cc(C#N)ccc21`, the activity change, negative = inhibition is 16.7%.
With `CC(=O)Oc1cccc(O)c1`, the activity change, negative = inhibition came out at 51.8%.
On to `Cc1cc2c(cc1C)CSC(c1c(O)ccc3cc(Br)ccc13)SC2`, for which the Potency is active: 0.794 µM.
With `CCCc1c(OCCCCc2nn[nH]n2)ccc(C(C)=O)c1O`, the activity change, negative = inhibition came to 11%.
In the case of `CO[C@@H]1[C@@H](OC(N)=O)[C@@H](O)[C@H](Oc2ccc3c(O)c(NC(=O)c4ccc(O)c(CC=C(C)C)c4)c(=O)oc3c2C)OC1(C)C`, the activity change, negative = inhibition amounted to 3.06%.
For `CCOc1ccc2c(c1)cc(C(=O)NCc1ccco1)n2C`, the Potency is active: 17.8 µM.
`CC(C)[C@H](N)C(=O)OCCOCn1cnc2c(=O)[nH]c(N)nc21`: the activity change, negative = inhibition was 13.8%.
Take `CCC[C@H](N[C@@H](C)C(=O)N1[C@H](C(=O)O)C[C@@H]2CCCC[C@@H]21)C(=O)OCC`: the activity change, negative = inhibition is -19.7%.
For the compound `Nc1ccc(C(=O)NCC(=O)O)cc1`, the activity change, negative = inhibition is -20.5%.
Take `CC1(C)OC(=O)NC1=O`: the activity change, negative = inhibition turned out to be 9.84%.
For the compound `Cc1ccc(/C(O)=C2\C(=O)C(=O)N(CC(C)O)C2c2cccc(F)c2)cc1` (stereo unspecified), the Potency is active: 17.8 µM.
With `CN(C)c1ccc(NCc2cccc(Br)c2)cc1`, the Potency is active: 7.94 µM.
For the compound `Cc1ccc2nc(N3C(=O)C(O)=C(C(=O)c4ccco4)C3c3ccc(O)cc3)sc2c1` (stereo unspecified), the Potency was active: 22.4 µM.
`CC(=O)Oc1cccc2c1C(=O)c1c(OC(C)=O)cc(C(=O)O)cc1C2=O`: the activity change, negative = inhibition turned out to be 33.9%.
Regarding `Cc1ncc(CSSCc2cnc(C)c(O)c2CO)c(CO)c1O`, the activity change, negative = inhibition was -13.1%.
Still for that read-out and setting: with `COc1ccc2c(c1)c(CC(=O)OC/C=C(\C)CC/C=C(\C)CCC=C(C)C)c(C)n2C(=O)c1ccc(Cl)cc1` the figure was 0.441%.
Still for that read-out and setting: with `O=S(=O)(O)NC1CCCCC1` the figure was -56.1%.
With `CC(C)NC[C@@H](O)COc1cccc2ccccc12`, the activity change, negative = inhibition is -66.7%.
For the compound `O=C(CS(=O)Cc1ccco1)NC/C=C\COc1cc(CN2CCCCC2)ccn1` (stereo unspecified), the activity change, negative = inhibition is -18%.
The same measure, in the same setting: with `CCCCC(CC)COC(=O)/C=C/c1ccc(OC)cc1` (stereo unspecified) the figure was -28.5%; with `Cc1c(N(C)CS(=O)(=O)O)c(=O)n(-c2ccccc2)n1C`, -15.1%.
On the same count and under the same terms, with `COc1ccc(CCN(C)CCCC(C#N)(c2cc(OC)c(OC)c(OC)c2)C(C)C)cc1OC` (stereo unspecified) the figure was -30.9%; with `Nc1cc(C(Cl)=C(Cl)Cl)c(S(N)(=O)=O)cc1S(N)(=O)=O`, 25%; with `CC(C)C[C@H](NC(=O)CNC(=O)[C@H](Cc1ccc(O)cc1)NC(=O)[C@H](CO)NC(=O)[C@H](Cc1c[nH]c2ccccc12)NC(=O)[C@H](Cc1cnc[nH]1)NC(=O)[C@@H]1CCC(=O)N1)C(=O)N[C@@H](CCCN=C(N)N)C(=O)N1CCC[C@H]1C(=O)NCC(N)=O` (stereo in doubt), -6.87%.
